# In the supplement of paper PMC4604168 (melanoma cell lines):
# Some of the results follow. Repeats are few or missing, and single values can be far off.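 Imaging used 1,536-well plates; nuclei positive for cleaved PARP by antibody were divided by total DNA-stained nuclei to yield the apoptosis fraction. Doses for screening kept most cells viable, and cell lines differ markedly in resting and induced cleaved-PARP levels.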
# Tests used:
# Assay in all cases: cleaved PARP positive nuclei fraction relative to DMSO control; melanoma cells; higher = more apoptosis
# Details in all cases: library dose: low library concentration; 72 h
# MZ2-MEL = test system: MZ2-MEL
# MeWo = test system: MeWo
# RPMI7951 = test system: RPMI7951
# RVH-421 = test system: RVH-421
# SkMel28 = test system: SkMel28
# SkMel30 = test system: SkMel30
# SkMel5 = test system: SkMel5
# UACC257 = test system: UACC257
# UACC62 = test system: UACC62
SMILES,cleaved PARP positive nuclei fraction (MZ2-MEL) [%],cleaved PARP positive nuclei fraction (MeWo) [%],cleaved PARP positive nuclei fraction (RPMI7951) [%],cleaved PARP positive nuclei fraction (RVH-421) [%],cleaved PARP positive nuclei fraction (SkMel28) [%],cleaved PARP positive nuclei fraction (SkMel30) [%],cleaved PARP positive nuclei fraction (SkMel5) [%],cleaved PARP positive nuclei fraction (UACC257) [%],cleaved PARP positive nuclei fraction (UACC62) [%]
"Cn1cncc1[C@@](N)(c1ccc(Cl)cc1)c1ccc2c(c1)c(-c1cccc(Cl)c1)cc(=O)n2C [tipifarnib] + O=C(O)C(=O)Nc1sc2c(c1C(=O)O)CCNC2 [TCS401] (first compound 0.01 µM, partner dose 1.66667 µM)",145,29.1,79.2,27.9,374,39.5,90.1,61.7,70.7
"OCCn1cc(-c2cnc3nnn(Cc4ccc5ncccc5c4)c3n2)cn1 + COc1ccc2c(c1)CCC1C2CCC2(C)C(NCCCCCCN3C(=O)C=CC3=O)CCC12 [U73122] (first compound 1 µM, partner dose 0.4 µM)",42.5,63.9,117,138,112,49.1,34,65.1,62.2
"Cc1ccc(NC(=O)c2cccc(N(C)C)c2)cc1NC(=O)c1ccc(O)cc1 + O=C(Nc1ccccc1)c1cc([N+](=O)[O-])ccc1Cl [GW9662] (first compound 2 µM, partner dose 2 µM)",213,60.2,94.8,118,865,38.6,54,46.8,54.2
"CC1(C)NC(=O)N(c2ccc([N+](=O)[O-])c(C(F)(F)F)c2)C1=O [nilutamide] + Oc1cc(-c2nc(-c3ccccc3)[nH]c2-c2ccncc2)ccc1Cl [L779450] (first compound 1 µM, partner dose 0.2 µM)",184,54.7,91.9,84,112,37.4,61.8,21,145
"COCC[n+]1c2c(n(Cc3cnccn3)c1C)C(=O)c1ccccc1C2=O + COc1cc2ncnc(Nc3ccc(Oc4ccccc4)cc3)c2cc1OC [SrcI1] (first compound 0.0004 µM, partner dose 2 µM)",159,131,48.2,109,120,423,78,141,150
"Cc1cc(N2CCOCC2)cc2[nH]c(-c3c(NC[C@@H](O)c4cccc(Cl)c4)cc[nH]c3=O)nc12 + CCCCCCCCCCCC1=C(O)C(=O)C=C(O)C1=O [Embelin] (first compound 0.2 µM, partner dose 1.2 µM)",199,117,83.8,60.1,94.9,19.1,51.8,107,111
"CO[C@@H]1[C@H](N(C)C(=O)c2ccccc2)C[C@H]2O[C@]1(C)n1c3ccccc3c3c4c(c5c6ccccc6n2c5c31)C(=O)NC4 [Midostaurin] + CC(C)CCN1c2nc(Nc3cc(F)c(O)c(F)c3)ncc2N(C)C(=O)C1C [BID1870] (first compound 0.08 µM, partner dose 0.2 µM)",100,262,48,59.1,128,28.4,68.8,135,42.2
"Nc1cccc2c1CN(C1CCC(=O)NC1=O)C2=O (stereo unspecified) [lenalidomide] + CCc1ccc(CCOc2ccc(CC3SC(=O)NC3=O)cc2)nc1 [pioglitazone] (first compound 1 µM, partner dose 2 µM)",207,107,77.2,41.4,107,75.8,70.2,55.4,79.1
"C[C@@H]1CCN(C(=O)CC#N)C[C@@H]1N(C)c1ncnc2[nH]ccc12 + c1cc(-c2cnn3cc(-c4ccc(OCCN5CCCCC5)cc4)cnc23)ccn1 [Dorsomorphin] (first compound 1 µM, partner dose 0.4 µM)",85.9,17.7,68.7,64.2,94.4,23.3,58.9,142,61
"NC(=O)Nc1cc(-c2cccc(F)c2)sc1C(=O)N[C@H]1CCCNC1 + COc1cc(N2CCC(N3CCN(C)CC3)CC2)ccc1Nc1ncc(Cl)c(Nc2ccccc2S(=O)(=O)C(C)C)n1 [NVP-TAE684] (first compound 0.02 µM, partner dose 0.08 µM)",192,84.9,84.1,47.8,139,192,27.4,69.9,85.9
"Cn1nnc2c(C(N)=O)ncn2c1=O [temozolomide] + c1cc(-c2cnn3cc(-c4ccc(OCCN5CCCCC5)cc4)cnc23)ccn1 [Dorsomorphin] (first compound 2 µM, partner dose 0.4 µM)",170,27,41.6,80.6,100,157,133,69.2,171
"Cn1cncc1[C@@](N)(c1ccc(Cl)cc1)c1ccc2c(c1)c(-c1cccc(Cl)c1)cc(=O)n2C [tipifarnib] + COc1cc(N2CCC(N3CCN(C)CC3)CC2)ccc1Nc1ncc(Cl)c(Nc2ccccc2S(=O)(=O)C(C)C)n1 [NVP-TAE684] (first compound 0.01 µM, partner dose 0.08 µM)",73.5,199,24,71.2,99.1,125,149,204,96.8
"Cc1nc(Nc2ncc(C(=O)Nc3c(C)cccc3Cl)s2)cc(N2CCN(CCO)CC2)n1 [dasatanib] + Cc1cc([N+](=O)[O-])ccc1NS(=O)(=O)c1cc(Cl)ccc1Cl [FH535] (first compound 0.004 µM, partner dose 1 µM)",87.8,67.3,243,140,163,52,79.1,274,163
"Cn1nnc2c(C(N)=O)ncn2c1=O [temozolomide] + O=C1NC(=O)/C(=C/c2ccc(-c3ccc(F)cc3O)o2)S1 [AS252424] (first compound 2 µM, partner dose 1 µM)",102,48.8,46.5,39.4,91.1,110,34.6,122,138
"COc1cc(Nc2ncc(F)c(Nc3ccc4c(n3)NC(=O)C(C)(C)O4)n2)cc(OC)c1OC [Tamatinib] + Oc1nc(-c2ccc(C(F)(F)F)cc2)nc2c1CSCC2 [XAV939] (first compound 0.4 µM, partner dose 2 µM)",288,52.8,106,61.9,132,25.6,144,114,172
"CO[C@@H]1[C@H](N(C)C(=O)c2ccccc2)C[C@H]2O[C@]1(C)n1c3ccccc3c3c4c(c5c6ccccc6n2c5c31)C(=O)NC4 [Midostaurin] + Cn1cc(/C=C2\C(=O)Nc3cccnc32)c2ccccc21 [GW441756] (first compound 0.08 µM, partner dose 0.4 µM)",123,269,58.7,180,98.6,49,104,189,167
"Nc1cccc2c1CN(C1CCC(=O)NC1=O)C2=O (stereo unspecified) [lenalidomide] + O=C(O)C(=O)Nc1sc2c(c1C(=O)O)CCNC2 [TCS401] (first compound 1 µM, partner dose 1.66667 µM)",57.3,130,249,82.5,70.2,50,112,115,67.2
"OCCn1cc(-c2cnc3nnn(Cc4ccc5ncccc5c4)c3n2)cn1 + COc1ccc(COc2ccc(Cc3cnc(N)nc3N)cc2OC)cc1 [GW2580] (first compound 1 µM, partner dose 1 µM)",95.6,70.4,79.4,74.3,50,36.3,118,98,40.7
"C#Cc1cccc(Nc2ncnc3cc(OCCOC)c(OCCOC)cc23)c1 [erlotinib] + CCc1ccc(CCOc2ccc(CC3SC(=O)NC3=O)cc2)nc1 [pioglitazone] (first compound 0.8 µM, partner dose 2 µM)",190,214,86.4,22.1,66.6,53.4,82.4,235,245
"Cn1c(Nc2ccc(C(F)(F)F)cc2)nc2cc(Oc3ccnc(-c4ncc(C(F)(F)F)[nH]4)c3)ccc21 + c1cc(-c2cnn3cc(-c4ccc(OCCN5CCCCC5)cc4)cnc23)ccn1 [Dorsomorphin] (first compound 0.08 µM, partner dose 0.4 µM)",196,64.6,51,38,148,71.3,153,502,174
"COc1cc(Nc2ncc(F)c(Nc3ccc4c(n3)NC(=O)C(C)(C)O4)n2)cc(OC)c1OC [Tamatinib] + COc1ccc(-c2ccc3c(N4CCOCC4)nc(N4C[C@@H](C)O[C@@H](C)C4)nc3n2)cc1CO [KU0063794] (first compound 0.4 µM, partner dose 0.02 µM)",172,137,95.2,230,212,114,137,136,48.1
"COc1cc(Nc2ncc(F)c(Nc3ccc4c(n3)NC(=O)C(C)(C)O4)n2)cc(OC)c1OC [Tamatinib] + Cc1cc([N+](=O)[O-])ccc1NS(=O)(=O)c1cc(Cl)ccc1Cl [FH535] (first compound 0.4 µM, partner dose 1 µM)",45.4,31.3,93.9,197,187,106,67.4,318,49.1
"O=C(Nc1cccc(Cl)c1)Nc1ncc(CCNc2ncnc3ccsc23)s1 + N#Cc1c(O)c2c(-c3ccc(-c4ccccc4O)cc3)csc2[nH]c1=O [A769662] (first compound 0.0008 µM, partner dose 2 µM)",122,58.9,41.1,82.1,132,68.7,114,107,178
"COCC[n+]1c2c(n(Cc3cnccn3)c1C)C(=O)c1ccccc1C2=O + CCCCCCCCCCCC1=C(O)C(=O)C=C(O)C1=O [Embelin] (first compound 0.0004 µM, partner dose 1.2 µM)",248,111,136,52.4,83.5,51,398,16,39.7

# A second format for some results above:
SMILES | cleaved PARP positive nuclei fraction (MZ2-MEL) [%] | cleaved PARP positive nuclei fraction (MeWo) [%] | cleaved PARP positive nuclei fraction (RPMI7951) [%] | cleaved PARP positive nuclei fraction (RVH-421) [%] | cleaved PARP positive nuclei fraction (SkMel28) [%] | cleaved PARP positive nuclei fraction (SkMel30) [%] | cleaved PARP positive nuclei fraction (SkMel5) [%] | cleaved PARP positive nuclei fraction (UACC257) [%] | cleaved PARP positive nuclei fraction (UACC62) [%]
Nc1cccc2c1CN(C1CCC(=O)NC1=O)C2=O (stereo unspecified) [lenalidomide] + CCc1ccc(CCOc2ccc(CC3SC(=O)NC3=O)cc2)nc1 [pioglitazone] (first compound 1 µM, partner dose 2 µM) | 207 | 107 | 77.2 | 41.4 | 107 | 75.8 | 70.2 | 55.4 | 79.1
OCCn1cc(-c2cnc3nnn(Cc4ccc5ncccc5c4)c3n2)cn1 + COc1ccc(COc2ccc(Cc3cnc(N)nc3N)cc2OC)cc1 [GW2580] (first compound 1 µM, partner dose 1 µM) | 95.6 | 70.4 | 79.4 | 74.3 | 50 | 36.3 | 118 | 98 | 40.7
